According to US5998521A, “Aqueous fluoropolymer compositions and method of preparing the same” (3M Innovative Properties Company, priority 1996, dated 1999):

Assay: Emulsion copolymerization of hexafluoropropylene and vinylidene fluoride
Conditions: for Size: latex particle size
Source text: The following procedure was used to evaluate C7 F15 CF(CF3)COO^- NH4^+ (from Ex. M1) as an emulsifier to copolymerize hexafluoropropylene (HFP) and vinylidene fluoride.
A 1 gallon, vertically agitated stainless steel reactor with pressure and temperature controls was evacuated and twice purged with nitrogen. Using an isolated vacuum, a solution comprised of 2 g of ammonium persulfate (initiator) and 6 g of dipotassium phosphate dissolved in 2800 g of deionized water was introduced into the reactor. The remaining vacuum on the reactor was vented with nitrogen, and the solution was degassed twice under agitation using alternate vacuum and nitrogen purges. A sufficient amount of a solution of C7 F15 CF(CF3)COO^- NH4^+ in approximately 20 g of 60-70° C. deionized water was introduced to the reactor under isolated vacuum to give a calculated final concentration of 350 ppm emulsifier in the aqueous solution. The reactor was vented with nitrogen, the solution was agitated very briefly, and the reactor was evacuated of nitrogen and isolated. Then the reactor was vented with hexafluoropropylene monomer to a pressure of approximately 10 psig (1280 torr total pressure), and the temperature of the batch was raised to 72° C. with high agitation. Maintaining the temperature at 72° C., a monomer mixture of 60% (wt) of vinylidene fluoride and 40% (wt) hexafluoropropylene was fed from a tared gas cylinder into the head space of the reactor to maintain a reactor pressure of 130 psig (7480 total pressure). After feeding in about 1 kg of monomer blend (approximately 3.75 hours duration), the introduction of monomer was ceased, the reaction was allowed to cool to room temperature, and any residual unreacted monomer was vented.
The resulting latex polymer was drained from the reactor, and percent solids of the latex was determined to be 25% by weight as measured by drying 10 g of latex in a forced air oven for 16 hours at 105° C.
The reactor body was separated from the reactor head, and a visual inspection of the reactor was made to determine the amount of coagulated polymer in the reactor (the amount should be minimal in a good polymerization reaction). A qualitative rating was assessed, ranging from "none" to "little" to "some."
The latex stability was determined by half filling a 16 oz (450 mL) jar with latex and shaking several hours in the horizontal position, quantitatively rating the latex after shaking using a 3-point scale ranging from 0=very stable to 3=unstable.
Particle size in the latex was determined using 90° scattering on a Coulter sub-micron particle size analyzer.
Degree of foaming was rated using the following qualitative scale: 0=not foamy, 1=slightly foamy, 2=moderately foamy, and 3=very foamy.
In Example P2, the same experiment was run as in Example P1, except that the concentration of C7 F15 CF(CF3)COO^- NH4^+emulsifier was raised to 3500 ppm, the reaction time decreased from 3.75 to 3.5 hours, and the reaction temperature increased from 72° C. to 78° C.
In Comparative Examples P3-P6, the same experiment was run as in Example P1, except that C8 F17 SO2 N(C2 H5)CH2 COO^- K^+ (Fluorad™ FC-128 Fluorochemical Surfactant, available from 3M Company, St. Paul, Minn.), C7 F15 COO^- H4 N^+ (Fluorad™ FC-143 Fluorochemical Surfactant), and Surflon™ S111S Fluorochemical Surfactant (believed to be nominally telomer-based n-C9 F19 COO^- H4 N^+, commercially available from Asahi Glass Corp., Japan) were substituted for C7 F15 CF(CF3)COO^- HN^+ emulsifier.

For N.O=C(O)C(F)(F)C(F)(F)C(F)(F)C(F)(F)C(F)(F)C(F)(F)C(F)(F)C(F)(F)C(F)(F)F [Surflon ™ S111S, n-C9 F19 COO^- H4 N^+], the Coagulation (emulsifier 350 ppm) was “some” and the Size (emulsifier 350 ppm) was 203 nm.
With O=C(O)C(F)(F)C(F)(F)C(F)(F)C(F)(F)C(F)(F)C(F)(F)C(F)(F)F [FC-143, C7 F15 COO^- H4 N^+] the Coagulation (emulsifier 350 ppm) was “some” and the Size (emulsifier 350 ppm) was 209 nm.
For O=C(O)C(F)(C(F)(F)F)C(F)(F)C(F)(F)C(F)(F)C(F)(F)C(F)(F)C(F)(F)C(F)(F)F (stereo not shown) [Example M14, C7 F15 CF(CF3)COO^- H4 N^+], the “performance as emulsifier” value (350 ppm or 3500 ppm, listed as C7 F15 CF(CF3)COO^- NH4^+) was “performs comparably to Fluorad™ FC-143 and Surflon™ S111S; also recorded: overall performance being comparable to Fluorad™ FC-128”, the Size (emulsifier 350 ppm) was 210 nm and the Coagulation (emulsifier 350 ppm, listed as C7 F15 CF(CF3)COO^- NH4^+) was “some and no coagulation”. The Size (emulsifier 3500 ppm) was 69 nm and the Coagulation (emulsifier 3500 ppm, listed as C7 F15 CF(CF3)COO^- NH4^+) was “none and coagulation was eliminated”.
For CCN(CC(=O)O)S(=O)(=O)C(F)(F)C(F)(F)C(F)(F)C(F)(F)C(F)(F)C(F)(F)C(F)(F)C(F)(F)F [Fluorad ™ FC-128, C8 F17 SO2 N(C2 H5)CH2 COO^- K^+], the Coagulation (emulsifier 100 ppm) was “some”, the Size (emulsifier 100 ppm) was 237 nm and the Coagulation (emulsifier 350 ppm) was “none”. The Size (emulsifier 350 ppm) was 88 nm.

Entries after “also recorded” stand apart in the source; their conditions may differ.
